The list shows a part of the results. Shown are side measurements of this screen, not its main read-out; they come without a call. The list favours compounds with an active or inconclusive main result. Words in brackets tell the shape of the fitted curve; partial curves, single points and poor fits give uncertain potencies.
Assay: qHTS Assay to Find Inhibitors of Chronic Active B-Cell Receptor Signaling
Details: ABC-DLBCL IkBa-CBG/CBR reporter, luminescence ratio (green luciferase fused to IkBa over red control in TMD8 lymphoma cells), 4 h
Method in brief: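 Doxycycline induced both beetle luciferases in TMD8 lymphoma cells; IKK-driven degradation limits the IkappaBalpha-fused green signal, while red luminescence normalises for cell number and nonspecific effects. Compounds tested up to 46 uM, 4 hrs.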

[1] = measured here: CBR red luminescence, cell number
[2] = measured here: IkBa-CBG green luminescence

SMILES | AC50 [1] | AC50 [2]
COc1cc(CNCCN2CCOCC2)ccc1OCc1cccc(Cl)c1 | 29.1 µM [falling, single point] | 32.6 µM [rising, partial curve, poor fit]
CC(C)(C)NC(=O)C(c1ccc(-c2ccccc2)cc1)N(C[C@H]1CC[C@@H]([C@@H]2CC[C@H](CO)O2)O1)C(=O)c1ccccc1F (some centres not stated) | 29.1 µM [falling, single point] | 
COc1ccc(CC(=O)N(Cc2ccccc2)C(C)C)cc1 | 5.62 µM [rising, single point] | 
COc1ccc(-n2cccc2/C=C2\C(=N)N3N=C(c4ccco4)SC3=NC2=O)cc1 | 1.41 µM [falling, full curve] | 
CC(=O)Nc1cccc(C(=O)N/N=C/c2cccnc2)c1 | 35.5 µM [falling, single point] | 
COc1cc([N+](=O)[O-])cc2sc(NC(C)=O)nc12 | 10 µM [falling, partial curve, poor fit] | 
c1ccc(CN2CCN(CCCNc3ccc4nnc(-c5ccccc5)n4n3)CC2)cc1 | 3.66 µM [falling, full curve] | 
O=[N+]([O-])/C(C(Cl)=C(Cl)Cl)=C1\Nc2ccccc2O1 | 0.794 µM [falling, full curve, poor fit] | 
Cc1csc(NC(=O)C2CCCN2C(=O)Oc2ccccc2)n1 (configuration not stated) | 20.6 µM [rising, single point] | 
Cc1sc2ncnc(NCc3ccco3)c2c1C | 8.91 µM [rising, partial curve] | 
CCS(=O)(=O)N1N=C(c2ccccc2)CC1c1ccc2nccnc2c1 (configuration not stated) | 23.1 µM [rising, single point] | 
O=C(CSCc1cnn(-c2ccccc2)c1-n1cccc1)NCc1cccnc1 | 35.5 µM [falling, single point] | 
O=C(N/N=C/c1c[nH]c2ccccc12)c1ccccc1 | 11.2 µM [falling, partial curve] | 
CC(C)(C)C(=O)Nc1nc(-c2ccc3c(c2)OCO3)cs1 | 7.31 µM [falling, partial curve, poor fit] | 
CCCC(O)(c1ccc(Br)cc1)C(CN1CCOCC1)c1ccc(Cl)cc1 (configuration not stated) | 22.4 µM [falling, single point] | 
COc1ccccc1N(C)S(=O)(=O)c1ccc(C(=O)NCCc2ccc(F)cc2)cc1 | 3.16 µM [rising, single point] | 
Cc1ccnc(NC(=O)CNC(=O)c2sc3ccccc3c2Cl)c1 | 6.51 µM [rising, full curve] | 
COc1cccc(NC(=O)c2cccc(N3C(=O)C4C5C=CC(C5)C4C3=O)c2)c1 (configuration not stated) | 12.6 µM [falling, partial curve, poor fit] | 
CCCSc1nnc2nc(C)cc(C)n12 | 0.164 µM [rising, partial curve, poor fit] | 
COc1ccc2[nH]cc(C(O)CN3CCN(c4ccccc4)CC3)c2c1 (configuration not stated) | 15.8 µM [falling, partial curve, poor fit] | 

SMILES | AC50 [1] | AC50 [2]
CC(=O)Nc1ccc(NC(=O)C(=O)NCC(c2ccco2)N2CCc3ccccc3C2)cc1 (configuration not stated) | 29.1 µM [rising, single point] | 
C/C(=N\Oc1cccc(F)n1)c1ccc(Cl)cc1Cl | 3.66 µM [rising, full curve, poor fit] | 
COc1ccc(CCC(=O)N(C)CC(=O)Nc2ccc(Cl)c(C(F)(F)F)c2)cc1 | 35.5 µM [falling, single point] | 
COc1ccc(NC(=O)c2ccc(Cl)c(S(=O)(=O)N3CCc4ccccc4C3)c2)cn1 | 1.84 µM [falling, partial curve, poor fit] | 3.66 µM [rising, partial curve, poor fit]
Cn1c(NC(=O)c2ccccc2NC(=O)C(C)(C)C)nc2ccccc21 | 11.6 µM [falling, partial curve] | 
Cc1cc(C(=O)N2CCc3ccccc3C2)n[nH]1 | 35.5 µM [falling, single point] | 
O=C(NC1CC1)C1CCN(C2CCN(C(=O)/C=C/c3ccc(F)cc3)CC2)CC1 | 0.398 µM [falling, full curve, poor fit] | 
COc1ccc(NC(=O)c2sc(-c3ccccc3)nc2C)c(OC)c1 | 3.98 µM [rising, full curve, poor fit] | 
Cc1cc(C)n(Cc2ccc(NC(=O)c3nn(C)cc3[N+](=O)[O-])cc2)n1 | 2.06 µM [falling, full curve, poor fit] | 
Cc1cccc(-n2c(O)c(C=NCCCN3CCOCC3)c3ccccc3c2=O)c1 | 29.1 µM [falling, partial curve, poor fit] | 
CC(=O)Nc1ccc(C(=O)/C=C/c2ccc[nH]2)cc1 | 10 µM [falling, partial curve, poor fit] | 
COc1ccc(C(=O)O/N=C(\N)Cc2ccc(Cl)c(Cl)c2)cc1OC | 20.6 µM [falling, single point] | 29.1 µM [rising, partial curve, poor fit]
COC(=O)COc1ccc(S(=O)(=O)Nc2ccc3c(c2)OCO3)cc1 | 25.9 µM [falling, single point] | 
N#CC1=C2Sc3ccccc3N2CCCC1=O | 12.6 µM [falling, partial curve] | 
Cc1nc(Nc2ccc(S(=O)(=O)N3CCCC3)cc2)c2nnn(Cc3ccccc3)c2n1 | 1.64 µM [falling, partial curve, poor fit] | 
CCCC(=O)N(Cc1cc(=O)[nH]c2ccccc12)c1ccccc1OC | 20 µM [falling, partial curve, poor fit] | 
Cc1ccc2c(C)c(C(=O)N3CCN(C4CCS(=O)(=O)C4)CC3)oc2c1C (configuration not stated) | 35.5 µM [falling, single point] | 
CCN1/C(=C/C=C/c2sc3ccccc3[n+]2CC)Sc2ccccc21 | 23.1 µM [falling, single point] | 
O=C(COc1ccccc1)Nc1ccc2c(c1)C(=O)N(CC1CCCO1)C2=O (configuration not stated) | 35.5 µM [rising, partial curve, poor fit] | 

Sorted by formula weight (smallest number first): 3 of the compounds above
SMILES | AC50 [1] | AC50 [2]
CC(=O)Nc1ccc(C(=O)/C=C/c2ccc[nH]2)cc1 | 10 µM [falling, partial curve, poor fit] | 
O=C(NC1CC1)C1CCN(C2CCN(C(=O)/C=C/c3ccc(F)cc3)CC2)CC1 | 0.398 µM [falling, full curve, poor fit] | 
CC(=O)Nc1ccc(NC(=O)C(=O)NCC(c2ccco2)N2CCc3ccccc3C2)cc1 (configuration not stated) | 29.1 µM [rising, single point] | 

From PubChem BioAssay AID493014 (National Center for Advancing Translational Sciences (NCATS), 2011)
